Data: patent US11293870B2, “Vital stain” (Mie University, priority 2013, dated 2022)
“Also recorded” adds a separate entry of the source. Where a name gives a salt, the structure may show the parent alone. For at least one compound, name, drawing or mass did not settle the structure.

Tested on: MDCK-GFP-Ras^V12 cells mixed with MDCK normal cells
Test: In vitro assay of MDCK-Ras^V12 cancerized cell small aggregates as a very early cancer model
Format: cell-based, canine
Conditions: Prestwick Chemical Library compounds, 1 μM, 5 minutes, excitation 750, 800, 850, 900 nm, red fluorescence

SMILES	Staining of GFP-Ras^V12 positive cancerized cells versus MDCK normal cells (hydrochloride)	Staining of GFP-Ras^V12 positive cancerized cells versus MDCK normal cells (dihydrochloride)
C=C1c2cccc(O)c2C(=O)C2=C(O)[C@]3(O)C(=O)C(C(N)=O)=C(O)[C@@H](N(C)C)[C@@H]3[C@@H](O)[C@H]12 [methacycline hydrochloride]	intensely labeled in GFP-Ras^V12 positive cancerized cell small aggregates compared to normal cells; also recorded: GFP-Ras^V12 positive cells were preferentially stained	
O=C1c2c(O)ccc(O)c2C(=O)c2c(NCCNCCO)ccc(NCCNCCO)c21 [mitoxantrone dihydrochloride]		intensely labeling MDCK normal cells compared to cancerized cell small aggregates; also recorded: GFP-Ras^V12 cells were not specifically stained, but normal cells were stained
